The list does not hold the whole screen: it gathers tests that were run many times, whatever their T/C, doses with no T/C, and many T/C values between a quarter and a half above the control. Other doses and runs of a compound stand elsewhere. T/C: endpoint of the treated group in % of that of the vehicle group. Some entries give survivors of the animals treated and no T/C: the source files T/C as zero there, which appears to mark a toxic dose or a test without result, not a measured value. Some survivor counts are full or nearly so, which does not show that the dose was tolerated: survival well below the control is almost never listed, so the zero probably covers shortened survival too. Survivors were counted at the toxicity check, usually on the fifth day, unless a day is given; later deaths do not show. Schedules are NCI's codes, taken here to give the interval after Q, in days (D) or hours (H), and the number of doses after X. Some schedules carry Z or #; the key to these is not given. Some doses were run more than once; the results are listed from low to high. Where survival is the endpoint, this PubChem deposit counts one and a half times the control or more as active, and values a quarter to a half above the control carry no call in these data; other NCI protocols may use other cut-offs. Some T/C values are followed by the survivors on the day toxicity was checked, most often the fifth; where none is given, no animal had died by that day.
System: L1210 leukemia ip in BDF1 mice, survival T/C
Test: NCI In Vivo Anticancer Drug Screen. Data for tumor model L1210 Leukemia (intraperitoneal) in B6D2F1 (BDF1) mice
Settings: T/C endpoint: mean survival time, higher T/C = longer survival
[1] = dose: 400.0 mg/kg/injection, schedule: Q01DX009 (ip), vehicle: Klucel (hydroxypropylcellulose) (HPC)
[2] = dose: 400.0 mg/kg/injection, schedule: Q04DX003 (ip), vehicle: saline with Tween-80
[3] = dose: 25.0 mg/kg/injection, schedule: Q01DX Z (ip), vehicle: methylcellulose (MC)
[4] = dose: 50.0 mg/kg/injection, schedule: Q01DX Z (ip), vehicle: methylcellulose (MC)
[5] = dose: 100.0 mg/kg/injection, schedule: Q01DX Z (ip), vehicle: methylcellulose (MC)
[6] = dose: 200.0 mg/kg/injection, schedule: Q01DX009 (ip), vehicle: saline

In the case of `Nc1nc(N)c2cc(CNc3ccc(C(=O)NC(C(=O)O)C(=O)O)cc3)ccc2n1`, the T/C (dose: 0.12 mg/kg/injection, schedule: Q01DX001 (ip), vehicle: saline) is reported as 125 % of control, the T/C (dose: 0.12 mg/kg/injection, schedule: Q01DX015 (ip), vehicle: carboxymethylcellulose (CMC)) is reported as 125 % of control and the T/C (dose: 0.25 mg/kg/injection, schedule: Q01DX001 (ip), vehicle: saline) is reported as 148 % of control. For the same compound, the T/C (dose: 0.5 mg/kg/injection, schedule: Q01DX001 (ip), vehicle: saline) was 130 % of control, the survivor count (dose: 0.5 mg/kg/injection, schedule: Q01DX015 (ip), vehicle: carboxymethylcellulose (CMC)) was 6 of 6 and the T/C (dose: 3.3 mg/kg/injection, schedule: Q01DX001 (ip), vehicle: carboxymethylcellulose (CMC)) was 134 % of control. For the same compound, the T/C (dose: 7.5 mg/kg/injection, schedule: Q01DX001 (ip), vehicle: carboxymethylcellulose (CMC)) was 141 % of control, the T/C (dose: 10.0 mg/kg/injection, schedule: Q01DX001 (ip), vehicle: carboxymethylcellulose (CMC)) was 126 % of control and the survivor count (dose: 40.0 mg/kg/injection, schedule: Q01DX001 (ip), vehicle: carboxymethylcellulose (CMC)) was 4 of 4. The survivor count (dose: 80.0 mg/kg/injection, schedule: Q01DX001 (ip), vehicle: carboxymethylcellulose (CMC)) was 4 of 4, the survivor count (dose: 100.0 mg/kg/injection, schedule: Q01DX001 (ip), vehicle: carboxymethylcellulose (CMC)) was 3 of 4 and the survivor count (dose: 200.0 mg/kg/injection, schedule: Q01DX001 (ip), vehicle: carboxymethylcellulose (CMC)) was 2 of 4. The survivor count (dose: 400.0 mg/kg/injection, schedule: Q01DX001 (ip), vehicle: carboxymethylcellulose (CMC)) was 3 of 4.

With `COc1cc(NC(=O)Nc2cc(Cl)ccc2C)c(OC)cc1Cl` the survivor count [1] was 3 of 3.

For `CC(C)Oc1ccc(CC(N)C(=O)O)cc1N(CCCl)CCCl` (configuration not stated), the T/C (dose: 1.2 mg/kg/injection, schedule: Q01DX009 (ip), vehicle: carboxymethylcellulose (CMC)) was 135 % of control, the T/C (dose: 1.5 mg/kg/injection, schedule: Q01DX009 (ip), vehicle: carboxymethylcellulose (CMC)) was 132 and 135 % of control and the T/C (dose: 2.2 mg/kg/injection, schedule: Q01DX009 (ip), vehicle: carboxymethylcellulose (CMC)) was 143 % of control. For the same compound, the T/C (dose: 2.5 mg/kg/injection, schedule: Q01DX009 (ip), vehicle: carboxymethylcellulose (CMC)) was 132 % of control, the T/C (dose: 3.5 mg/kg/injection, schedule: Q01DX009 (ip), vehicle: saline) was 142 % of control and the T/C (dose: 5.0 mg/kg/injection, schedule: Q01DX001 (ip), vehicle: Klucel (hydroxypropylcellulose) (HPC)) was 125 % of control. For the same compound, the T/C (dose: 5.0 mg/kg/injection, schedule: Q01DX009 (ip), vehicle: carboxymethylcellulose (CMC)) was 130 % of control, the T/C (dose: 5.0 mg/kg/injection, schedule: Q01DX009 (ip), vehicle: saline) was 144 % of control and the T/C (dose: 7.5 mg/kg/injection, schedule: Q01DX001 (ip), vehicle: Klucel (hydroxypropylcellulose) (HPC)) was 129 % of control. For the same compound, the T/C (dose: 7.5 mg/kg/injection, schedule: Q01DX009 (ip), vehicle: saline) was 138 % of control [5 of 6 alive], the survivor count (dose: 8.8 mg/kg/injection, schedule: Q01DX009 (ip), vehicle: carboxymethylcellulose (CMC)) was 6 of 6 and the T/C (dose: 10.0 mg/kg/injection, schedule: Q01DX009 (ip), vehicle: saline) was 144 % of control. The T/C (dose: 11.0 mg/kg/injection, schedule: Q01DX001 (ip), vehicle: Klucel (hydroxypropylcellulose) (HPC)) was 148 % of control, the survivor count (dose: 13.3 mg/kg/injection, schedule: Q01DX009 (ip), vehicle: carboxymethylcellulose (CMC)) was 3 of 6 and the T/C (dose: 15.0 mg/kg/injection, schedule: Q01DX001 (ip), vehicle: saline with Tween-80) was 131 % of control. The T/C (dose: 15.0 mg/kg/injection, schedule: Q01DX009 (ip), vehicle: saline) was 128 % of control, the T/C (dose: 16.5 mg/kg/injection, schedule: Q01DX001 (ip), vehicle: Klucel (hydroxypropylcellulose) (HPC)) was 140 % of control and the survivor count (dose: 20.0 mg/kg/injection, schedule: Q01DX009 (ip), vehicle: carboxymethylcellulose (CMC)) was 1 of 6. The T/C (dose: 21.0 mg/kg/injection, schedule: Q01DX001 (ip), vehicle: saline with Tween-80) was 135 % of control, the T/C (dose: 29.0 mg/kg/injection, schedule: Q01DX001 (ip), vehicle: saline) was 130 % of control and the T/C (dose: 30.0 mg/kg/injection, schedule: Q01DX001 (ip), vehicle: carboxymethylcellulose (CMC)) was 142 % of control. For the same compound, the survivor count (dose: 30.0 mg/kg/injection, schedule: Q01DX009 (ip), vehicle: carboxymethylcellulose (CMC)) was 0 of 6, the T/C (dose: 45.0 mg/kg/injection, schedule: Q01DX001 (ip), vehicle: saline) was 146 % of control and the survivor count (dose: 60.0 mg/kg/injection, schedule: Q01DX001 (ip), vehicle: carboxymethylcellulose (CMC)) was 3 of 6. For the same compound, the survivor count (dose: 65.0 mg/kg/injection, schedule: Q01DX001 (ip), vehicle: saline) was 1 of 6, the survivor count (dose: 75.0 mg/kg/injection, schedule: Q01DX001 (sc), vehicle: carboxymethylcellulose (CMC)) was 1 of 6 and the survivor count (dose: 150.0 mg/kg/injection, schedule: Q01DX001 (sc), vehicle: carboxymethylcellulose (CMC)) was 0 of 6. The survivor count (dose: 300.0 mg/kg/injection, schedule: Q01DX001 (sc), vehicle: carboxymethylcellulose (CMC)) was 0 of 6.

In the case of `COC(=O)/C(=C1/OC(=O)C(c2ccccc2)=C1O)c1ccccc1`, the survivor count (dose: 200.0 mg/kg/injection, schedule: Q04DX003 (ip), vehicle: saline with Tween-80) is reported as 1 of 6 and the survivor count [2] is reported as 1 of 6.

With `N/C(=N\[N+](=O)[O-])N(CCCCl)N=O` the T/C [3] was 96 % of control, the survivor count [3] was 0 of 6 and 3 of 6 and the T/C [4] was 106 % of control [4 of 6 alive]. The survivor count [4] was 0 of 6 and 3 of 6, the T/C [5] was 112 % of control and the survivor count [5] was 0 of 6. For the same compound, the survivor count (dose: 135.0 mg/kg/injection, schedule: Q01DX Z (ip), vehicle: carboxymethylcellulose (CMC)) was 4 of 6, the survivor count (dose: 200.0 mg/kg/injection, schedule: Q01DX Z (ip), vehicle: methylcellulose (MC)) was 0 of 6 and the survivor count (dose: 400.0 mg/kg/injection, schedule: Q01DX001 (ip), vehicle: saline) was 2 of 4.

`O=[N+]([O-])c1ccc(S(=O)Cc2ccccc2)c2c1no[n+]2[O-]` (configuration not stated) was tested, and the survivor count (dose: 50.0 mg/kg/injection, schedule: Q04DX003 (ip), vehicle: saline with Tween-80) was 2 of 4 and the survivor count (dose: 100.0 mg/kg/injection, schedule: Q04DX003 (ip), vehicle: saline with Tween-80) was 0 of 4.

In the case of `N=C(N)SCCCSC(=N)N`, the survivor count [6] is reported as 5 of 6, the survivor count (dose: 200.0 mg/kg/injection, schedule: Q04DX003 (ip), vehicle: Klucel (hydroxypropylcellulose) (HPC)) is reported as 0 of 6 and the survivor count (dose: 400.0 mg/kg/injection, schedule: Q01DX009 (ip), vehicle: saline) is reported as 0 of 6. For the same compound, the survivor count (dose: 400.0 mg/kg/injection, schedule: Q04DX003 (ip), vehicle: Klucel (hydroxypropylcellulose) (HPC)) was 0 of 6.

`C=CC1(C)CCC2C(=CCC3C(C)(COC4OC(CO)C(O)C(O)C4O)C(O)CCC23C)C1` (configuration not stated) was tested, and the survivor count (dose: 300.0 mg/kg/injection, schedule: Q01DX001 (ip), vehicle: saline) was 0 of 6.

In the case of `CC(C)CN=C(N)CSS(=O)(=O)O`, the survivor count (dose: 100.0 mg/kg/injection, schedule: Q04DX002 (ip), vehicle: Klucel (hydroxypropylcellulose) (HPC)) is reported as 1 of 3 and the survivor count (dose: 400.0 mg/kg/injection, schedule: Q04DX002 (ip), vehicle: Klucel (hydroxypropylcellulose) (HPC)) is reported as 0 of 3.

With `CC(=O)Nc1cc(Cl)cc2c1-c1c(Cl)cc(Cl)cc1C2` the survivor count (dose: 200.0 mg/kg/injection, schedule: Q01DX009 (ip), vehicle: Klucel (hydroxypropylcellulose) (HPC)) was 3 of 6 and the survivor count [1] was 0 of 6.

`O=S1(=O)N=C(c2ccccc2)CC(c2ccccc2)N1` (configuration not stated) was tested, and the survivor count [2] was 3 of 6.

With `CCOC(=O)CNc1cc(N)ncn1` the survivor count [6] was 0 of 3.

For `O=C(N1CCOCC1)C1(c2ccccc2)CCNCC1`, the survivor count (dose: 400.0 mg/kg/injection, schedule: Q04DX003 (ip), vehicle: saline) was 2 of 6.

— PubChem BioAssay AID248 (DTP/NCI, 2004)
